Results deposited as PubChem BioAssay AID1259308 (NCATS, 2017).
Here is an unselected part of about 59,000 reagents tested. About 1,510 of all reagents (2.6%) count as active. 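Calls use total luciferase alone and ignore viability, so some active siRNAs may act by altering cell number.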 The numbers tell different reagents against one gene apart. Further read-outs or replicates are left out here.

Screen: 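Genes whose loss raises luciferase production in HEK293 cells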 (primary screen)
Cells: human HEK293 embryonic kidney cells stably expressing firefly luciferase (HEK-CMV-Luc2-Hygro)
Knock-down reagent: single siRNA against human genes, 0.8 pmol siRNA per well
Timing: 72 h
Measurement: 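Reporter luminescence and viable-cell signal on separate replicate plates, given as percent of non-targeting control and median/MAD z-scores, plus per-cell luciferase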
Direction: total luciferase, z-score and total luciferase, % of control: higher = more reporter protein produced; luciferase per cell, z-score: higher = more reporter output per viable cell
Rule for the call: 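Active when the median/MAD z-score for overall luciferase is greater than 3; a gene was taken forward for validation with new siRNAs if at least two of its three siRNAs passed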
Calls: active = raised luciferase; inactive = no rise

no.	gene knocked down	siRNA no.	total luciferase, z-score	total luciferase, % of control	luciferase per cell, z-score	call
1	KIAA1191	1	1.97	121	1.07	inactive
2	KIAA1191	2	-2.1	40.2	-1.77	inactive
3	KIAA1191	3	-0.798	66	-0.956	inactive
4	TIGD7 (tigger transposable element derived 7)	1	0.0236	82.4	-0.534	inactive
5	TIGD7 (tigger transposable element derived 7)	2	-1.88	44.5	-2.44	inactive
6	TIGD7 (tigger transposable element derived 7)	3	-0.549	71	-1.12	inactive
7	LRRC32 (leucine rich repeat containing 32)	1	-1.54	51.3	-0.77	inactive
8	LRRC32 (leucine rich repeat containing 32)	2	-0.95	63	-0.937	inactive
9	LRRC32 (leucine rich repeat containing 32)	3	2.14	124	1.99	inactive
10	CD200 (CD200 molecule)	1	-2.01	41.9	-1.62	inactive
11	CD200 (CD200 molecule)	2	0.468	91.2	0.0402	inactive
12	CD200 (CD200 molecule)	3	0.275	87.4	0.474	inactive
13	TMEM218 (transmembrane protein 218)	1	-1.37	54.7	-1.34	inactive
14	TMEM218 (transmembrane protein 218)	2	-0.488	72.2	-0.65	inactive
15	TMEM218 (transmembrane protein 218)	3	0.202	85.9	-0.221	inactive
16	RBKS (ribokinase)	1	-0.297	76	0.566	inactive
17	RBKS (ribokinase)	2	-0.286	76.2	-0.654	inactive
18	RBKS (ribokinase)	3	0.0268	82.4	-0.217	inactive
19	KIF16B (kinesin family member 16B)	1	-0.865	64.7	-1.04	inactive
20	KIF16B (kinesin family member 16B)	2	0.434	90.5	0.447	inactive
21	KIF16B (kinesin family member 16B)	3	-0.549	71	-0.343	inactive
22	RIPPLY3 (ripply transcriptional repressor 3)	1	0.24	86.7	2.17	inactive
23	RIPPLY3 (ripply transcriptional repressor 3)	2	-1.26	56.8	-1.18	inactive
24	RIPPLY3 (ripply transcriptional repressor 3)	3	-0.197	78	-0.577	inactive

4 consecutive records from above:
no.	gene knocked down	siRNA no.	total luciferase, z-score	total luciferase, % of control	luciferase per cell, z-score	call
12	CD200 (CD200 molecule)	3	0.275	87.4	0.474	inactive
13	TMEM218 (transmembrane protein 218)	1	-1.37	54.7	-1.34	inactive
14	TMEM218 (transmembrane protein 218)	2	-0.488	72.2	-0.65	inactive
15	TMEM218 (transmembrane protein 218)	3	0.202	85.9	-0.221	inactive
